Values quoted from earlier work as cited in US8609666B2, “2-morpholino-pyrido[3,2-D]pyrimidines” (Merck Serono SA, priority 2009, dated 2013).
Like-named read-outs stand apart in the source and are kept apart here.

Tested on: Class I PI3-kinases
Settings: Fruman et al., 1998, cited from earlier work

O=c1cc(N2CCOCC2)oc2c(-c3ccccc3)cccc12 [LY294002]
IC50 (read-out: IC50 against each of the Class I PI3-kinases): 15 to 20 µM

COC[C@H]1OC(=O)c2coc3c2[C@@]1(C)C1=C(C3=O)[C@@H]2CCC(=O)[C@@]2(C)C[C@H]1OC(C)=O [Wortmannin]
IC50 (read-out: IC50 against each of the various Class I PI3-kinases): 0.001 to 0.01 µM
